From the supplement of paper PMC3682954
Structures can show the parent of a compound that is named as a salt. ± gives the standard deviation of the averaged measurements. The list shows a part of the results. Most values come without repeats; read them as rough.

Tested on: RAW 264.7
Experiment: HMGB1-induced TNF-alpha production relative to HMGB1-stimulated control; higher = more TNF-alpha secretion (less inhibition)
Conditions: stimulus: HMGB1 5 ug/ml, 18 h
[1] = compound concentration: 1 ug/ml

Row | SMILES | HMGB1-induced TNF-alpha production (compound concentration: 3 uM) [%] | HMGB1-induced TNF-alpha production [1] [%]
1 | NC(N)=NOCC[C@H](N)C(=O)O [L-Canavanine] | 89.7 | 
2 | NC(N)=NOCC[C@H](N)C(=O)O | 101 | 
3 | NC(N)=NOCC[C@H](N)C(=O)O [L-Canavanine sulfate] | 110 | 
4 | N[C@@H](Cn1oc(=O)[nH]c1=O)C(=O)O [(+)-Quisqualic acid] | 81.3 | 
5 | C[C@]12CC[C@H]3[C@@H](CC[C@]4(O)C[C@@H](O)CC[C@]34C=O)[C@@]1(O)CC[C@@H]2C1=CC(=O)OC1 [Strophanthidin] |  | 78.6
6 | C#CCN(C)C(C)Cc1ccccc1 (centres undefined) [Deprenyl HCl] | 90.2 ± 8 | 
7 | C[N+]1(CCC(C(N)=O)(c2ccccc2)c2ccccc2)CCCCC1 | 103 | 
8 | S=C(NC1CCCCC1)N1CCC(c2cnc[nH]2)CC1 [Thioperamide maleate] | 105 ± 14 | 
9 | O=C([O-])Cc1ccccc1.[Na+] [Sodium Phenylacetate] | 137 | 
10 | CC1=NCCc2c1[nH]c1cc(O)ccc21 [Harmalol] |  | 54.5
11 | CC1=NCCc2c1[nH]c1cc(O)ccc21 [Harmalol hydrochloride dihydrate] | 111 | 
12 | C=C[C@H]1CN2CC[C@H]1C[C@H]2[C@H](O)c1ccnc2ccccc12 | 120 | 
13 | COc1ccc2c(c1)[C@]13CCCC[C@@H]1[C@H](C2)N(C)CC3 [d-3-Methoxy-N-methylmorphinan hydrobromide] | 83.6 | 
14 | COc1ccc2c(c1)[C@]13CCCC[C@@H]1[C@H](C2)N(C)CC3 [Dextromethorphan hydrobromide monohydrate] | 72.6 ± 13 | 
15 | COc1ccc2c(c1)[C@]13CCCC[C@@H]1[C@H](C2)N(C)CC3 [Dextromethorphan] | 95.1 | 
16 | COc1ccc2c(c1)[C@]13CCCC[C@@H]1[C@H](C2)N(C)CC3 | 85.7 | 
17 | Cc1ccc(S(=O)(=O)N2CC3CC(C2)c2cccc(=O)n2C3)cc1 (centres undefined) |  | 71.1
18 | Oc1ccc(CC2NCCc3cc(O)c(O)cc32)cc1O (centres undefined) [Tetrahydropapaveroline hydrobromide] |  | 51.2
19 | O=C1C=CC(=O)c2c(O)cccc21 | 78.5 | 
20 | Oc1cc2c(cc1O)[C@H]1c3ccccc3CN[C@@H]1CC2 | 112 | 

Row | SMILES | HMGB1-induced TNF-alpha production (compound concentration: 3 uM) [%] | HMGB1-induced TNF-alpha production [1] [%]
21 | Clc1cnc(Oc2ccc(Oc3ncc(Cl)cc3Cl)cc2)c(Cl)c1 | 125 | 
22 | CNCCc1ccc(O)c(O)c1 [N-Methyldopamine hydrochloride] | 58.9 | 
23 | CC(Cc1ccc(O)cc1)NCC(O)c1cc(O)cc(O)c1 (centres undefined) | 60.9 | 
24 | CC(Cc1ccc(O)cc1)NCC(O)c1cc(O)cc(O)c1 (centres undefined) [Fenoterol hydrobromide] | 42.8 ± 17 | 
25 | C=C1[C@@H]2CC[C@H]3[C@]4(C)C[C@H](O[C@@H]5O[C@H](CO)[C@@H](OS(=O)(=O)O)[C@H](OS(=O)(=O)O)[C@H]5OC(=O)CC(C)C)C[C@@H](C(=O)O)[C@H]4CC[C@]3(C2)[C@@H]1O [Atractyloside potassium salt] | 103 | 
26 | C=C[C@H]1CN2CC[C@H]1C[C@@H]2[C@@H](O)c1ccnc2ccccc12 | 97.9 | 
27 | C=C[C@H]1CN2CC[C@H]1C[C@@H]2[C@@H](O)c1ccnc2ccccc12 [(+)-Cinchonine] |  | 47.3
28 | Cn1cnc(CCN)c1 [1-Methylhistamine dihydrochloride] | 112 | 89.4
29 | C1CCc2nnnn2CC1 [Pentylenetetrazole] | 115 ± 4.2 | 
30 | C1CCc2nnnn2CC1 | 97.4 | 
31 | OC[C@@H]1CCCN2CCCC[C@H]12 [Lupinine] |  | 67.7
32 | COC1=CC2C3Cc4ccc(OC)c(O)c4C2(CCN3C)CC1=O (centres undefined) |  | 58.1
33 | C=CC[C@]1(O)CC[C@H]2[C@@H]3CCC4=CC(=O)CCC4=C3C=C[C@@]21C | 84.8 | 
34 | CCCN1CCC[C@@H]2Cc3nc(N)ncc3C[C@H]21 [Quinelorane dihydrochloride] | 98.7 | 
35 | C[C@]12CC[C@@H](O)C[C@@H]1CC[C@@H]1[C@@H]2CC[C@]2(C)C(=O)CC[C@@H]12 [Androsterone] | 74 | 
36 | CC1=CC(=O)C2=C(C)C[C@H](O)[C@@H]3[C@H](OC(=O)[C@H]3C)[C@H]12 [Austricine] |  | 79.2
37 | CNCC(O)c1ccc(O)cc1 (racemic) [(±)-Synephrine] | 98.8 | 
38 | CNCC(O)c1ccc(O)cc1 (racemic) [(+,-)-Synephrine] | 116 | 
39 | CN(N=O)c1ccc(O)c(O)c1 [Me-3,4-dephostatin] | 105 | 
40 | CC1=CC(=O)c2c(O)cccc2C1=O [Plumbagin] |  | 57.2

Laid out differently: entries from further up
Row	SMILES	HMGB1-induced TNF-alpha production (compound concentration: 3 uM) [%]	HMGB1-induced TNF-alpha production [1] [%]
9	O=C([O-])Cc1ccccc1.[Na+] [Sodium Phenylacetate]	137	
10	CC1=NCCc2c1[nH]c1cc(O)ccc21 [Harmalol]		54.5
11	CC1=NCCc2c1[nH]c1cc(O)ccc21 [Harmalol hydrochloride dihydrate]	111	
12	C=C[C@H]1CN2CC[C@H]1C[C@H]2[C@H](O)c1ccnc2ccccc12	120	
13	COc1ccc2c(c1)[C@]13CCCC[C@@H]1[C@H](C2)N(C)CC3 [d-3-Methoxy-N-methylmorphinan hydrobromide]	83.6	
14	COc1ccc2c(c1)[C@]13CCCC[C@@H]1[C@H](C2)N(C)CC3 [Dextromethorphan hydrobromide monohydrate]	72.6 ± 13	
15	COc1ccc2c(c1)[C@]13CCCC[C@@H]1[C@H](C2)N(C)CC3 [Dextromethorphan]	95.1	
16	COc1ccc2c(c1)[C@]13CCCC[C@@H]1[C@H](C2)N(C)CC3	85.7	
17	Cc1ccc(S(=O)(=O)N2CC3CC(C2)c2cccc(=O)n2C3)cc1 (centres undefined)		71.1
18	Oc1ccc(CC2NCCc3cc(O)c(O)cc32)cc1O (centres undefined) [Tetrahydropapaveroline hydrobromide]		51.2
19	O=C1C=CC(=O)c2c(O)cccc21	78.5	
20	Oc1cc2c(cc1O)[C@H]1c3ccccc3CN[C@@H]1CC2	112	
21	Clc1cnc(Oc2ccc(Oc3ncc(Cl)cc3Cl)cc2)c(Cl)c1	125	
22	CNCCc1ccc(O)c(O)c1 [N-Methyldopamine hydrochloride]	58.9	

Remaining list, next part.

Row | SMILES | HMGB1-induced TNF-alpha production (compound concentration: 3 uM) [%] | HMGB1-induced TNF-alpha production [1] [%]
41 | CC(Cc1ccc(OCC(=O)O)cc1)NCC(O)c1cccc(Cl)c1 (centres undefined) | 60 | 
42 | OC1CCCCC1N1CCC(c2ccccc2)CC1 (centres undefined) | 87.7 | 
43 | NC(=O)c1ccc(N)nc1 | 94.6 | 
44 | N[C@@H](Cc1ccc(N(CCCl)CCCl)cc1)C(=O)O | 88.5 ± 5.1 | 
45 | N[C@@H](Cc1ccc(N(CCCl)CCCl)cc1)C(=O)O [Melphalan] | 94.6 ± 11 | 
46 | CC(C)=CCOc1c2occc2cc2ccc(=O)oc12 [Imperatorin] | 84.1 | 
47 | C=CCN1C[C@H](C)N([C@H](c2ccc(C(=O)N(CC)CC)cc2)c2cccc(OC)c2)C[C@H]1C | 107 | 
48 | O=[N+]([O-])O[C@@H]1CO[C@H]2[C@@H]1OC[C@@H]2O | 85.8 | 
49 | O=[N+]([O-])O[C@@H]1CO[C@H]2[C@@H]1OC[C@@H]2O [Isosorbide mononitrate] | 126 | 
50 | C[C@H](N)[C@H](O)c1ccc(O)c(O)c1 [Levonordefrin] | 44.5 | 
51 | C[C@H](N)[C@H](O)c1ccc(O)c(O)c1 | 66.2 | 
52 | N=C(N)NN [Aminoguanidine hydrochloride] | 88.9 | 
53 | N=C(N)NN [Aminoguanidine hemisulfate] | 91.5 | 
54 | CC[C@@]1(O)C[C@H](O[C@H]2C[C@H](N(C)C)[C@H](O)[C@H](C)O2)c2c(cc3c(c2O)C(=O)c2c(O)cccc2C3=O)[C@H]1C(=O)OC | 12.7 | 
55 | CC(C)N(CCC(C(N)=O)(c1ccccc1)c1ccccn1)C(C)C (centres undefined) [Disopyramide phosphate] | 78 | 
56 | CC(C)N(CCC(C(N)=O)(c1ccccc1)c1ccccn1)C(C)C (centres undefined) | 89.8 | 
57 | CC(C)N(CCC(C(N)=O)(c1ccccc1)c1ccccn1)C(C)C (centres undefined) [Disopyramide] | 84.1 ± 13 | 
58 | O.O.O=c1cccc2n1CC1CC2CN(CCO)C1.[Cl][Cu][Cl] (centres undefined) |  | 88.2
